Counter-ions that a name gives are not always drawn. At least one compound was matched to its structure with a doubt left.
Target: T1, LDH isoenzymes (LD5 in the presence of LD1) (Oryctolagus cuniculus, UniProt P13491)
T1 construct: LD1 (LDHB tetramer) only as comparison
Assay: Anionic amphiphiles tested for specific interaction with LDH isoenzymes (Table 2)
Type: biochemical
Procedure: The assay for LDH activity in both the absence and presence of surfactant was conducted as follows. […] The resulting solution contains approximately 5 units/ml. […] To the equilibrated solution […]. of the enzyme solution was added, and the cuvette was rapidly shaken while covering the top of the cuvette with a small piece of Parafilm® and placed back into the spectrophotometer.
Amphiphile solutions were prepared by weighing out a given amount of amphiphile, e.g., 100 mg, and preparing a stock solution in 30 mM sodium phosphate buffer in 100 ml. volumetric flask. Solutions of lower amphiphile concentration were prepared by making the appropriate dilutions from the stock solution.
A number of anionic amphiphiles were investigated for specific inactivation of LD5 in the presence of LD1 and these compounds are listed in Table 2.

CCCCCCCCOS(=O)(=O)O [octyl sulfate]
Interaction (specific inactivation of LD5 in the presence of LD1): no effect

Source: patent publication US4250255A, “Assay method for isoenzyme activity” (Eastman Kodak Company, priority 1977, dated 1981)
